The data set is described as follows: general procedure: Fmoc solid-phase peptide synthesis. The conditions noted are these: whole synthesis.

We go through 3 substances from article PMC5291322 (Angewandte Chemie (International Ed. in English), 2016).

Regarding TAMRA-Ahx-T-Aha-KKMRR-Aha-R-NH2, the isolated yield was 8%.
In the case of TAMRA-Ahx-T-Aza-KKMRR-Aza-R-NH2 it was 5%.
In the case of TAMRA-Ahx-TNKKMRRNRFK-NH2 it was 25%.
